PubChem BioAssay AID1259424, University of Nebraska Medical Center – 2018
Here is an unselected part of about 14,000 reagents. 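Higher correlation or smaller distance means closer resemblance to KSR1 loss; control wells, including KSR1 knockdowns, recur on many plates.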 Further read-outs or replicates are left out here. No sequences are given here. Not stated in the record: the time to read-out.

- Aim: 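Seek colon cancer survival genes behaving like KSR1, using a six-gene signature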 (primary screen)
- Cells: human HCT116 colon cancer cells
- Knock-down reagent: siRNA pool against human genes, 50 nM
- Read-out: 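Log2 levels of six mRNAs (branched-DNA multiplex), adjusted by two reference genes and the non-targeting median, then scored against the average KSR1 knockdown pattern as Pearson r and euclidean distance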
- Scale: mean correlation with KSR1 profile: higher = expression change more like KSR1 knockdown; mean distance from KSR1 profile: higher = expression change less like KSR1 knockdown

ITGA7
- mean correlation with KSR1 profile: 0.372
- mean distance from KSR1 profile: 0.987

F13B
- mean correlation with KSR1 profile: -0.715
- mean distance from KSR1 profile: 2.04

PRR34
- mean correlation with KSR1 profile: -0.206
- mean distance from KSR1 profile: 3.03

CCDC15
- mean correlation with KSR1 profile: 0.126
- mean distance from KSR1 profile: 2.01

ABCG2
- mean correlation with KSR1 profile: 0.387
- mean distance from KSR1 profile: 1.39

CCNP
- mean correlation with KSR1 profile: -0.59
- mean distance from KSR1 profile: 2.46

PLEKHG2
- mean correlation with KSR1 profile: -0.426
- mean distance from KSR1 profile: 1.48

ARRDC3
- mean correlation with KSR1 profile: -0.286
- mean distance from KSR1 profile: 2.89

CPT2
- mean correlation with KSR1 profile: 0.624
- mean distance from KSR1 profile: 2.29

PRPF4
- mean correlation with KSR1 profile: 0.252
- mean distance from KSR1 profile: 1.74

ATL2
- mean correlation with KSR1 profile: -0.263
- mean distance from KSR1 profile: 2.47

ANPEP
- mean correlation with KSR1 profile: -0.376
- mean distance from KSR1 profile: 2.4

Only “mean correlation with KSR1 profile”, for 2 of the entries above:
CCNP = -0.59
PLEKHG2 = -0.426
